These are yes or no findings as the source states them, for the method shown. Binding can be weak; no strength is given.
Molecular target: Itch WW region, GST-tagged (GST-WW) (mouse) (UniProt Q8C863)
Test: pull-down; GST fusion of the WW region or its fragments (or C2) loaded on GSH-Sepharose 4B beads, incubated with Trx-HECT; 50 mM Tris pH 8.0, 100 mM NaCl, 1 mM DTT, 1 mM EDTA, 4 °C, 1 h; three washes; SDS-PAGE, Coomassie; both purified

Chains of the proteins cited; added tags and fusions are not shown. Lines headed by an entry give the natural chain unless they say otherwise; changes in a name come on top.
UniProt Q8C863: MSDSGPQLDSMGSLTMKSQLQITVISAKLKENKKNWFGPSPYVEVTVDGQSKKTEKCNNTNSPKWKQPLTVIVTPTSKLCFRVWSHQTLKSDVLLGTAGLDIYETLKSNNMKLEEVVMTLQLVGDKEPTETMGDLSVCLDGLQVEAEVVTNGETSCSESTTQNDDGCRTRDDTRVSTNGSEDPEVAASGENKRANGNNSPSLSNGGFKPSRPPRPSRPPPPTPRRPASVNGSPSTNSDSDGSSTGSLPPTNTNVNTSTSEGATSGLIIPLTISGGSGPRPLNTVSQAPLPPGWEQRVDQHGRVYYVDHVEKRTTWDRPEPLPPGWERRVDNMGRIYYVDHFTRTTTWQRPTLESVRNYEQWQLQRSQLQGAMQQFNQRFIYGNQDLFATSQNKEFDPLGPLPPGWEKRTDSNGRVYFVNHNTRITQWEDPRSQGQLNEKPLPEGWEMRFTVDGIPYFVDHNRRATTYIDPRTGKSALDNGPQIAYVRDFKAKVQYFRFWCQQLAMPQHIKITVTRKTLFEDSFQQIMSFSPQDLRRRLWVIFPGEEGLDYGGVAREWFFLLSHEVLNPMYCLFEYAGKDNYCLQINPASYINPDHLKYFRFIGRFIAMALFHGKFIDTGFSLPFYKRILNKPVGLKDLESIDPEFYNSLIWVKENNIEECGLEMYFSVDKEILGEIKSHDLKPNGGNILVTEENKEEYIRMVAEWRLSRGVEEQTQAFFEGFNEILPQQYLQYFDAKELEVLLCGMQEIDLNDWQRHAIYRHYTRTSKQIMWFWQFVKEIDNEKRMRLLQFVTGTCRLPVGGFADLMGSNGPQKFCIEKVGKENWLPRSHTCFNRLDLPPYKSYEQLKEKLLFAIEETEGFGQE

binding: binds
Substance: Itch HECT domain, Trx-tagged (Trx-HECT) (from UniProt Q8C863) (domain or fragment)

From article PMC6639328
